Assay results reported in paper doi:10.1101/2022.12.21.521423 (bioRxiv, 2022).
These are yes or no findings as the source states them, for the method shown. Binding seen in cells or lysates may run through a third protein. Some entries that bind do so weakly or less than the wild type.

Protein sequences, listed by entry. Tags and fused reporters are not part of them. Lines headed by an entry give the natural chain unless they say otherwise; changes in a name come on top. Residues count along the entry.
UniProt Q96QE4, 28-905: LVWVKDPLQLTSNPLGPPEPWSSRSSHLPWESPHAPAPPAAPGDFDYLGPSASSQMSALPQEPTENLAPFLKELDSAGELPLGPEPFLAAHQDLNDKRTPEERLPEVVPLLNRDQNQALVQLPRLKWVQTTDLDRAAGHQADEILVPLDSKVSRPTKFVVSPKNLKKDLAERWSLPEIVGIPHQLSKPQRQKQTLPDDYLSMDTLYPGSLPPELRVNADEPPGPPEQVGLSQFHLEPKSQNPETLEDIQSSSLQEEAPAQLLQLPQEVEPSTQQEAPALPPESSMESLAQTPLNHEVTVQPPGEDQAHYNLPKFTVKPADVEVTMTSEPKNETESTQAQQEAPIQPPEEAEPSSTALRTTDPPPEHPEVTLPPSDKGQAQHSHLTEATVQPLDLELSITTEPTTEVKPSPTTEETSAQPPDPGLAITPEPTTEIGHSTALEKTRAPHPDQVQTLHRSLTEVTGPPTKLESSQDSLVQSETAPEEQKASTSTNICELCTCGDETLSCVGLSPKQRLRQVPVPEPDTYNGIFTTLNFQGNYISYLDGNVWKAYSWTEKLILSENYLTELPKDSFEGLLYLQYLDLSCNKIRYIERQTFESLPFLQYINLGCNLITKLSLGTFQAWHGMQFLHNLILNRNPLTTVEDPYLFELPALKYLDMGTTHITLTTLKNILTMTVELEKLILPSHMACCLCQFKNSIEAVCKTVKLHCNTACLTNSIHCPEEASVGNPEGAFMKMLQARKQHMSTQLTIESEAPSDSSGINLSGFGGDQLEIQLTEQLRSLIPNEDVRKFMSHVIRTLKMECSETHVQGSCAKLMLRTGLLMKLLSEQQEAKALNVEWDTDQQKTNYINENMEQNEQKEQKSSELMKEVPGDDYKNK
UniProt Q96QE4, 28-947: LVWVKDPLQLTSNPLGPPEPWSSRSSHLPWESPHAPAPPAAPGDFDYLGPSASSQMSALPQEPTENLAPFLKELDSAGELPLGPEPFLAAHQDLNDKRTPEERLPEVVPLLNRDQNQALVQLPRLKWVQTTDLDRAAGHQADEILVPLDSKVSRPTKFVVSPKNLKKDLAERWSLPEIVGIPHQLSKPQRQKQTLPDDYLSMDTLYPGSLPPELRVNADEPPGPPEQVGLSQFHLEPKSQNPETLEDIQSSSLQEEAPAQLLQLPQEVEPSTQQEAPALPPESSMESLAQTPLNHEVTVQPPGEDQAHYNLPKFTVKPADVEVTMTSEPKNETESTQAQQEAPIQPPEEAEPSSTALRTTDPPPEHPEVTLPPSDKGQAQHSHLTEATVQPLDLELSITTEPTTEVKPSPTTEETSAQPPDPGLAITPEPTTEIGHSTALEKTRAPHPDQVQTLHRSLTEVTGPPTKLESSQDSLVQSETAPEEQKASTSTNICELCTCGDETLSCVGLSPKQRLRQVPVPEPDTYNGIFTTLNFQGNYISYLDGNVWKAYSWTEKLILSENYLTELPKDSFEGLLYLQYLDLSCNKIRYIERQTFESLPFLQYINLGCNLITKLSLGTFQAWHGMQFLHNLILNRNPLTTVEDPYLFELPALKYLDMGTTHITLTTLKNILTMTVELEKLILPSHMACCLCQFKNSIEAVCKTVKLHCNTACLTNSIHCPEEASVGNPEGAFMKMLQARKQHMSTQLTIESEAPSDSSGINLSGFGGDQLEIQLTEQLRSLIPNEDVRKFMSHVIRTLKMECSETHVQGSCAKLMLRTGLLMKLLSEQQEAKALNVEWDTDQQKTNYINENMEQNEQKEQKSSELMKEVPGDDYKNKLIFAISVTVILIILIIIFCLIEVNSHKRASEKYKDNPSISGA
UniProt Q96QE4, 468-841: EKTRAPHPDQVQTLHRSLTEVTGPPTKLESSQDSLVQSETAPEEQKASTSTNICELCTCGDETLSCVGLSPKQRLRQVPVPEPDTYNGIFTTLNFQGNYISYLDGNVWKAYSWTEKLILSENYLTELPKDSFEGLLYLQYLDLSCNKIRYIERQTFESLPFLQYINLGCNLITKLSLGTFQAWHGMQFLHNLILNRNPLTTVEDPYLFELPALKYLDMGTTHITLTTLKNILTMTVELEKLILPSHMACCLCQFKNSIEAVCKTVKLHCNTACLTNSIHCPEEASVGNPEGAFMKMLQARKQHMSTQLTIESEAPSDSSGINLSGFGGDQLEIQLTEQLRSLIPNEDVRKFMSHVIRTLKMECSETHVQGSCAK
UniProt Q96QE4, whole entry, looked up, stated change not applied: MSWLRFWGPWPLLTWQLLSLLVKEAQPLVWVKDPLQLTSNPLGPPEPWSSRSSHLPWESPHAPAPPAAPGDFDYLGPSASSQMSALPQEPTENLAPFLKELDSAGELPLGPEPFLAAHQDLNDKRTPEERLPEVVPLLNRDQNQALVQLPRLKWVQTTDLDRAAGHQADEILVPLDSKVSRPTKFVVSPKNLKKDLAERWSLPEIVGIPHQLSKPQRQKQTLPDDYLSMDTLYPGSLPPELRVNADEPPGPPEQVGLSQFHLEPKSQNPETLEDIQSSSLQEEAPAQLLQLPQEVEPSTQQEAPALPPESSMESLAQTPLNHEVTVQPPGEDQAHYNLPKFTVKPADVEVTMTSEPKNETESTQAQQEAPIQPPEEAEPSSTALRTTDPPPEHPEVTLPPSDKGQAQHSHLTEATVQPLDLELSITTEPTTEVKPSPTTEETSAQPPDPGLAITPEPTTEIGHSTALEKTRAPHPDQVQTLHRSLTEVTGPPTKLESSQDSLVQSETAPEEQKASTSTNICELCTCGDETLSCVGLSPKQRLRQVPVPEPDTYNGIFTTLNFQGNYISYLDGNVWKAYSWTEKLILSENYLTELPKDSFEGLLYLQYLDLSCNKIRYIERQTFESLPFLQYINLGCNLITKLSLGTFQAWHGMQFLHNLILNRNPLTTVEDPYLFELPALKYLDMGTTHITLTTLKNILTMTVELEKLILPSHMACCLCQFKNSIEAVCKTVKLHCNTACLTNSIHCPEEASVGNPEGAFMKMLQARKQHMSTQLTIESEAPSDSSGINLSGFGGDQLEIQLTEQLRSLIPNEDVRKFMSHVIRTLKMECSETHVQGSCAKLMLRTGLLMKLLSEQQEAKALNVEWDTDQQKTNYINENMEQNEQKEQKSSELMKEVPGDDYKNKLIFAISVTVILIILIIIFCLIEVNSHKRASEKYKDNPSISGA
UniProt A6NM11, 36-1700: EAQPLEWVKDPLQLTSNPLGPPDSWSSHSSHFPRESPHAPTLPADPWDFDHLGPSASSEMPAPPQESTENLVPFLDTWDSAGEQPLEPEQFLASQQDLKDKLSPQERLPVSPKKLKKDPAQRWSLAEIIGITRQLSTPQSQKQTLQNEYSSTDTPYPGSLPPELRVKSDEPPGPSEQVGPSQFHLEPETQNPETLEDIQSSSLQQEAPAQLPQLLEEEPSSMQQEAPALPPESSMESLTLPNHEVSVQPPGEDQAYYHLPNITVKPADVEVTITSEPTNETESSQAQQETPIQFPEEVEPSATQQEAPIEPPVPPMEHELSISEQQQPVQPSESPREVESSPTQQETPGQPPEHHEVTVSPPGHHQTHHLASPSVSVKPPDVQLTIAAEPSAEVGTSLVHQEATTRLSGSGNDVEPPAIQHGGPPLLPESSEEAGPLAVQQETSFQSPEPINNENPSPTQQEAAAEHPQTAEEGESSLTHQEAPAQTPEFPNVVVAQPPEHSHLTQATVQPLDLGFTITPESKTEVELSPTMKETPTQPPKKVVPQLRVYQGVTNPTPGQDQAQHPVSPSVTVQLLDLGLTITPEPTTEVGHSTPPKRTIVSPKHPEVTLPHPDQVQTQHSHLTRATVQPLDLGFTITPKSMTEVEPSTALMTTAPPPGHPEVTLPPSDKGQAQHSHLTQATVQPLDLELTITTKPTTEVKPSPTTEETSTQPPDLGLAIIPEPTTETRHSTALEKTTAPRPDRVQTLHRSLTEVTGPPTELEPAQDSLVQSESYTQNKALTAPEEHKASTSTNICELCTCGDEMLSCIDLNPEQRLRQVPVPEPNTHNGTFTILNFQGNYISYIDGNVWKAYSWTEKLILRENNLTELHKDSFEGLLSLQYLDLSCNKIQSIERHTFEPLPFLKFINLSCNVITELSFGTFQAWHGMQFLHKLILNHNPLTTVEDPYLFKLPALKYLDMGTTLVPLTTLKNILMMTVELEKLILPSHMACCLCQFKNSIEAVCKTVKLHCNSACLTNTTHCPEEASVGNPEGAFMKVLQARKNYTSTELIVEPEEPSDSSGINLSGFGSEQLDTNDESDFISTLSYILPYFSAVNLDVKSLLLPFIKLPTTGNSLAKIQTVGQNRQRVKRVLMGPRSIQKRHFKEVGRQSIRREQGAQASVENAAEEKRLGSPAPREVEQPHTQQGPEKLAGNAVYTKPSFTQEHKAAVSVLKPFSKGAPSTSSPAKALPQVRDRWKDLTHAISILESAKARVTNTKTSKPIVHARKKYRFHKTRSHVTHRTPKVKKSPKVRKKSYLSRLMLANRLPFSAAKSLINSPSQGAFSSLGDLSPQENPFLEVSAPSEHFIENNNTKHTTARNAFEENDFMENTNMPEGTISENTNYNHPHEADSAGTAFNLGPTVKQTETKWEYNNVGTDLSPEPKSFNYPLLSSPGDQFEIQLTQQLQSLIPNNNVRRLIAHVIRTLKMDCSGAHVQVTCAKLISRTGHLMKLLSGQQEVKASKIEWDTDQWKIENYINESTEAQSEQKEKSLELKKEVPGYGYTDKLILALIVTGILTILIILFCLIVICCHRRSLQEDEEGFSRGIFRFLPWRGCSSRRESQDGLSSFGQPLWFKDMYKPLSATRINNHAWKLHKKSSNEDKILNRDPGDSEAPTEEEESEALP
UniProt Q86UE6, 35-427: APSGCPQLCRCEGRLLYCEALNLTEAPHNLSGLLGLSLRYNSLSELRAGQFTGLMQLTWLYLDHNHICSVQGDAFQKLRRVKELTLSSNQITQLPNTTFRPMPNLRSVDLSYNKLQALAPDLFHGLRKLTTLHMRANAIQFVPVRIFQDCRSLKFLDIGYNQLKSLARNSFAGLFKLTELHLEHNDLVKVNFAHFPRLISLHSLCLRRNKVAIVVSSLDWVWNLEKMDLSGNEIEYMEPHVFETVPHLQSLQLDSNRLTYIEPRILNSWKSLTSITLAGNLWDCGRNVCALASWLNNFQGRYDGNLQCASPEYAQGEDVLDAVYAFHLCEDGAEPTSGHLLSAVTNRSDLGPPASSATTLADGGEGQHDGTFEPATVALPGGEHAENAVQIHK

Assays:
Assay in all cases: co-IP
NAV1.6 (SCN8A) = NAV1.6 (SCN8A) (UniProt Q9UQD0)
SLITRK2_ECTO = molecular target: T1, SLITRK2_ECTO (UniProt Q9H156)
T1 sequence: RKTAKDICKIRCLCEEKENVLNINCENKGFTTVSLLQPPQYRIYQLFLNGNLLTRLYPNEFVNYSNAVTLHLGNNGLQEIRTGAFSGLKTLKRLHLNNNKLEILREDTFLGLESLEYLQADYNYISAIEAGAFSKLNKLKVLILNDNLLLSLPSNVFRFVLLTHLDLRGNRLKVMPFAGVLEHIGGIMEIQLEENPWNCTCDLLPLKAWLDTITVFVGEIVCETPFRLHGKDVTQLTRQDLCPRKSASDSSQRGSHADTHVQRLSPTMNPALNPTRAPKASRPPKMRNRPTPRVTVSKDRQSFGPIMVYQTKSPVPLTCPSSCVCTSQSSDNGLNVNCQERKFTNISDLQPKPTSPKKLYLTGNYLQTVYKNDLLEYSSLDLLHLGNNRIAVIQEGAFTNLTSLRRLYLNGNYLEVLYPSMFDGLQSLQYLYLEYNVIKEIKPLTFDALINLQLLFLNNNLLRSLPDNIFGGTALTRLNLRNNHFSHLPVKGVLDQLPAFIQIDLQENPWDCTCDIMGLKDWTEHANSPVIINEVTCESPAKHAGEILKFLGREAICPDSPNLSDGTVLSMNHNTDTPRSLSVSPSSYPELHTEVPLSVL

LRRC37B-HA (human) = LRRC37B-HA (human) (UniProt Q96QE4)
HA-LRRC37B-ECTO (human) = HA-LRRC37B-ECTO (human) (UniProt Q96QE4)
[1] = molecular target: HA-LRRC37B-LRR-ECTO (human) (UniProt Q96QE4)
[2] = molecular target: human LRRC37A2-HA (human) (UniProt A6NM11)
LRRTM1_ECTO = LRRTM1_ECTO (UniProt Q86UE6)
[3] = molecular target: HA-LRRC37B-ΔLRR-ECTO (human) (UniProt Q96QE4)

B1: FGF13A (ligand, UniProt Q92913-1 1-245)
chain: MAAAIASSLIRQKRQAREREKSNACKCVSSPSKGKTSCDKNKLNVFSRVKLFGSKKRRRRRPEPQLKGIVTKLYSRQGYHLQLQADGTIDGTKDEDSTYTLFNLIPVGLRVVAIQGVQTKLYLAMNSEGYLYTSELFTPECKFKESVFENYYVTYSSMIYRQQQSGRGWYLGLNKEGEIMKGNHVKKNKPAAHFLPKPLKVAMYKEPSLHDLTEFSRSGSGTPTKSRSVSGVLNGGKSMSHNEST
- binding (NAV1.6 (SCN8A)): binds
- binding (SLITRK2_ECTO): no binding
- binding (LRRC37B-HA (human)): binds
- binding (HA-LRRC37B-ECTO (human)): binds
- binding [1]: binds
- binding [2]: binds
- binding (LRRTM1_ECTO): no binding
- binding [3]: no binding
